# Measured values: PubChem BioAssay AID2685 (National Center for Advancing Translational Sciences (NCATS), 2010)
# Some of the results follow. These are further read-outs of the screen, such as a control signal, another cell line or another target. No call is given for them. Most of these compounds were active or inconclusive in the main read-out, so they are no random draw. Words in brackets tell the shape of the fitted curve; partial curves, single points and poor fits give uncertain potencies.
# Test: qHTS Assay for Lipid Storage Modulators in Drosophila S3 Cells;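 on cell number change: cells counted by Cell Tracker Red CMTPX staining in the red channel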
# Conditions: BODIPY lipid droplet fluorescence, 18-24 h; for cell number change: measured here: cell count max response, cells fed with added oleic acid
# In short: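 Drosophila S3 cells loaded with oleic acid (400 uM, as added) and compounds at several concentrations; lipid droplets imaged by 488-nm laser-scanning cytometry, 500–530 nm intensity and object ratio to cell channel. Percent activity normalized to 20 uM Triacsin C.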
# [1] = measured here: cell number channel AC50, cells fed with added oleic acid
# [2] = measured here: lipid fluorescence (Fed channel) AC50, cells fed with added oleic acid
structure (smiles),measurement,setting,value
Cc1ccc(-c2cc(C(=O)Nc3sc4c(c3C(=O)NCc3ccco3)CCC4)[nH]n2)c(O)c1,cell number change,,38.2%
same,AC50,[1],"0.92 µM [rising, full curve]"
O=C(O)CCCC(=O)NS(=O)(=O)c1ccc(Cl)cc1,cell number change,,-62.2%
same,AC50,[1],"13 µM [falling, partial curve, poor fit]"
same,AC50,[2],"8.2 µM [falling, partial curve]"
Cc1cc(C)c(S(=O)(=O)Nc2ccccc2C(=O)N2CCOCC2)c(C)c1,AC50,[2],"18.4 µM [falling, partial curve, poor fit]"
COC(=O)c1c(C)oc(C)c1S(=O)(=O)NC(c1ccccc1)c1ccccc1,cell number change,,13.2%
same,AC50,[1],"0.231 µM [falling, full curve, poor fit]"
Cc1ccc(C(=O)COC(=O)c2ccc3c(c2)C(=O)N(c2cccc4ncccc24)C3=O)cc1,cell number change,,-23.6%
same,AC50,[2],"32.6 µM [falling, single point]"
COc1cccc(CNS(=O)(=O)c2c(C(=O)N3CCCC3)c(C)n(C)c2C)c1,cell number change,,-1.18%
Cc1ccc(OCC(=O)Nc2ccc(-n3cnnn3)cc2)c(C)c1,cell number change,,50.6%
same,AC50,[1],"11.6 µM [rising, partial curve]"
COC(=O)Cn1c(=O)c(C)nc2ccccc21,cell number change,,-10.3%
CCOC(=O)C1CCN(c2nc3ccccc3nc2C(C#N)C(=O)OC(C)C)CC1 (stereo not given),cell number change,,1.37%
same,AC50,[2],"32.6 µM [rising, single point]"
COc1ccc(Cl)cc1C(=O)NNC1CC(=O)N(Cc2ccc(Cl)cc2)C1=O (stereo not given),cell number change,,5.26%
Cc1csc(NC(=O)Nc2ccccc2[N+](=O)[O-])n1,cell number change,,6.37%
same,AC50,[1],"1.46 µM [falling, partial curve]"
N#Cc1c(Nc2cccc(F)c2)sc2c(O)cc(=O)[nH]c12,cell number change,,-0.88%
same,AC50,[2],"2.59 µM [rising, partial curve]"
COC(=O)Nc1ccc(S(=O)(=O)N2CCN(C)CC2)cc1,cell number change,,-12.6%
same,AC50,[1],"0.58 µM [falling, full curve, poor fit]"
same,AC50,[2],"0.291 µM [falling, full curve]"
Cc1c(C(=O)Nc2ccccc2F)sc2nc3n(c(=O)c12)CCC3,cell number change,,-79.2%
same,AC50,[1],"13 µM [falling, partial curve]"
same,AC50,[2],"5.17 µM [falling, full curve]"
C/C=C/C(=O)OCc1csc(CC(=O)Nc2ccccc2C)n1,cell number change,,14.1%
CC1C(=O)N2CCCc3cc(S(=O)(=O)NCc4ccc(Cl)cc4)cc1c32 (stereo not given),cell number change,,17.2%
Cc1nn(Cc2ccccc2)c(C)c1/C=N/NC(=O)c1ccccc1O,cell number change,,24.4%
CN(Cc1ccon1)C(=O)C1CCC(=O)N(Cc2ccc(Cl)cc2)C1 (stereo not given),cell number change,,26.2%
same,AC50,[2],"32.6 µM [rising, partial curve]"
Cn1c(N2CCOCC2)nc(-c2ccccc2)c1-c1ccccc1,cell number change,,43.4%
same,AC50,[1],"14.6 µM [rising, single point]"
Cc1ccnn1CC(=O)N/N=C/c1ccc2c(c1)OCO2,cell number change,,0.563%
same,AC50,[2],"0.00731 µM [rising, full curve, poor fit]"
CCn1c(C)nc2cc(C(=O)NNC(=O)CCC3CCCCC3)ccc21,cell number change,,-1.05%
same,AC50,[2],"0.164 µM [falling, partial curve, poor fit]"
Cc1ccc(NC(=S)NNC(=S)Nc2ccc(C)cc2C)cc1,cell number change,,-13.9%
same,AC50,[2],"29.1 µM [falling, single point]"
CC(=O)N1N=C(c2ccccc2)CC1c1cn(C)c2ccccc12 (stereo not given),AC50,[1],"6.51 µM [rising, partial curve, poor fit]"
Cc1cc(NC(=O)c2cc(-c3ccc(OC(C)C)cc3)nc3ccccc23)no1,AC50,[2],"29.1 µM [rising, single point]"
CCOC(=O)N1CCN(C(=O)Nc2ccc(Cl)cc2)CC1,AC50,[1],"2.31 µM [rising, partial curve]"
CCOc1ccc(Cn2nnc(C(=O)NCCc3ccc(Cl)cc3)c2N)cc1,AC50,[2],"0.146 µM [falling, full curve, poor fit]"
CCC(CC)NC(=O)CO/N=C/c1ccccc1OC(F)F,AC50,[2],"2.59 µM [rising, partial curve]"
O=c1c2ccc([N+](=O)[O-])cc2ncn1CCOc1ccccc1,cell number change,,-1.29%
same,AC50,[2],"16.4 µM [falling, single point]"
O=C(N/N=C/c1cccc(OC(=O)N2CCOCC2)c1)c1cccs1,cell number change,,-30.1%
same,AC50,[1],"18.4 µM [falling, single point]"
same,AC50,[2],"10.3 µM [falling, partial curve]"
Cc1ccc(S(=O)(=O)N=S(CC2CC2(Cl)Cl)CC2CC2(Cl)Cl)cc1 (stereo not given),cell number change,,-45%
same,AC50,[1],"29.1 µM [falling, single point]"
Clc1ccc(C2[C@H]3CN(Cc4ccc(-c5ccccc5)cc4)[C@H](c4ccccc4)C34CC2(c2cccnc2)C4)cn1 (stereo not given in full),cell number change,,32.3%
same,AC50,[1],"0.13 µM [rising, full curve]"
same,AC50,[2],"0.116 µM [rising, full curve]"
O=C(Cn1cc(/C=C\[N+](=O)[O-])c2ccccc21)Nc1ccccc1,cell number change,,-24.6%
same,AC50,[2],"9.2 µM [falling, partial curve, poor fit]"
Cc1nc(SCc2ccccc2)c2ccsc2n1,cell number change,,-21.2%
O=C(CC1CCC1)NC(c1ccccc1)c1ccccc1,cell number change,,-31.1%
same,AC50,[1],"29.1 µM [falling, single point]"
Cc1ccc(-n2c(N)c(C(=O)N3CCOCC3)sc2=S)cc1,AC50,[1],"6.51 µM [falling, single point]"
same,AC50,[2],"6.51 µM [falling, single point]"
O=C(c1ccnc(Cl)c1)N1CCCC(Nc2ccc(F)cc2)C1 (stereo not given),cell number change,,0.232%
O=c1cc(N2CCCCC2)c(-c2ccccc2)nn1Cc1ccc(Cl)cc1,cell number change,,-0.743%
same,AC50,[2],"6.51 µM [rising, single point]"
COc1ccc(C(C)C)cc1S(=O)(=O)NCCCn1ccnc1,cell number change,,19.4%
same,AC50,[2],"29.1 µM [rising, single point]"
CC1CCCN(C(=O)c2ccc(CNc3c(N4CCCCC4)c(=O)c3=O)cc2)C1 (stereo not given),cell number change,,17.3%
same,AC50,[1],"2.31 µM [rising, single point]"
same,AC50,[2],"13 µM [rising, partial curve]"
COc1ccc(Oc2nnc(C)c3ccccc23)cc1,cell number change,,100%
same,AC50,[1],"6.51 µM [rising, partial curve]"
same,AC50,[2],"16.4 µM [rising, partial curve]"
CN1CCN(c2ccc(NC(=O)c3ccc4ccccc4c3)cc2)CC1,cell number change,,-5.67%
same,AC50,[2],"0.461 µM [rising, single point]"
O=C1/C(=C\c2cccnc2)Sc2ccccc21,cell number change,,-21.2%
same,AC50,[2],"23.1 µM [falling, partial curve, poor fit]"
S=c1[nH]nc(-c2ccc3ccccc3n2)n1-c1cc(Cl)cc(Cl)c1,cell number change,,-38.5%
same,AC50,[1],"29.1 µM [falling, single point]"
same,AC50,[2],"29.1 µM [falling, single point]"
COc1ccc(NC(=O)CN(c2ccc(C)cc2)S(=O)(=O)c2c(C)nn(C)c2C)cc1OC,cell number change,,21.8%
same,AC50,[1],"1.84 µM [rising, partial curve]"
same,AC50,[2],"2.31 µM [rising, partial curve]"
COC(=O)CSc1nc(N)c2c3c(sc2n1)CCCC3,cell number change,,-8.87%
same,AC50,[2],"29.1 µM [rising, single point]"
CCOC(=O)C1=C(Cc2ccc(C)cc2)C(=O)c2ccccc2C1=O,cell number change,,-98.1%
same,AC50,[1],"29.1 µM [falling, single point]"
same,AC50,[2],"14.6 µM [falling, partial curve]"
Cc1noc(/C=C/N(C)C)c1S(=O)(=O)N1CCC(C(=O)NC(C)(C)C)CC1,cell number change,,-18.6%
same,AC50,[2],"10.3 µM [rising, partial curve, poor fit]"
CC1(C)C(c2ccc(Cl)cc2)=[N+]([O-])C2(CCCC/C2=N\O)N1O (stereo not given),cell number change,,-1.48%
same,AC50,[2],"0.116 µM [falling, full curve, poor fit]"
FC(F)(F)c1n[nH]c(=S)n1/N=C/c1ccco1,cell number change,,-38.6%
same,AC50,[1],"25.9 µM [falling, single point]"
same,AC50,[2],"16.4 µM [falling, single point]"
CCOc1ccccc1C(=O)NCC(=O)NCC(C)(C)N1CCOCC1,cell number change,,22.3%
same,AC50,[2],"10.3 µM [rising, partial curve]"
c1ccc2c(c1)OCC(CNc1ncnc3sccc13)O2 (stereo not given),cell number change,,-46.7%
same,AC50,[1],"1.16 µM [falling, full curve]"
same,AC50,[2],"0.58 µM [falling, full curve]"
COc1ccc(-c2cc(C(F)(F)F)nc(S(=O)(=O)CCCC(=O)Nc3cc(C)on3)n2)cc1OC,cell number change,,-45.8%
same,AC50,[1],"13 µM [falling, partial curve, poor fit]"
same,AC50,[2],"18.4 µM [falling, partial curve]"
Cc1cc(C(C)(C)C)oc1C(=O)N(CC(=O)NC1CCCC1)Cc1ccccc1Cl,cell number change,,28%
same,AC50,[2],"3.66 µM [rising, single point]"
COc1ccc2nc(NC(=O)Cc3cccs3)sc2c1,cell number change,,21.8%
same,AC50,[1],"0.517 µM [rising, full curve, poor fit]"
O=C(COc1ccc(Br)cc1CO)Nc1ccccc1F,cell number change,,3.43%
same,AC50,[2],"4.11 µM [falling, full curve]"
Cc1cc(C(=O)NNC2CC(=O)N(c3ccc4ccccc4c3)C2=O)c(C)o1 (stereo not given),cell number change,,-1.31%
same,AC50,[1],"0.0731 µM [falling, full curve, poor fit]"
same,AC50,[2],"0.0731 µM [falling, full curve, poor fit]"
N=C1C(c2nc3ccccc3c(=O)[nH]2)=C(O)CN1CCO,AC50,[2],"0.146 µM [falling, full curve, poor fit]"
COc1ccc(CCn2c(NCc3ccco3)nc3c2c(=O)[nH]c(=O)n3C)cc1,cell number change,,-7.49%
same,AC50,[2],"6.51 µM [falling, single point]"

# Part of the list above in a different format.
structure (smiles)	measurement	setting	value
CC1(C)C(c2ccc(Cl)cc2)=[N+]([O-])C2(CCCC/C2=N\O)N1O (stereo not given)	cell number change		-1.48%
same	AC50	[2]	0.116 µM [falling, full curve, poor fit]
FC(F)(F)c1n[nH]c(=S)n1/N=C/c1ccco1	cell number change		-38.6%

# Fetched one by one from the list above, three records:
structure (smiles),measurement,setting,value
COc1ccc(NC(=O)CN(c2ccc(C)cc2)S(=O)(=O)c2c(C)nn(C)c2C)cc1OC,AC50,[2],"2.31 µM [rising, partial curve]"
Cn1c(N2CCOCC2)nc(-c2ccccc2)c1-c1ccccc1,AC50,[1],"14.6 µM [rising, single point]"
Cc1nc(SCc2ccccc2)c2ccsc2n1,cell number change,,-21.2%
